Consider one substance from PMC6062498.

The chains behind the UniProt entries cited, without tags or fusion partners.
UniProt Q7L576: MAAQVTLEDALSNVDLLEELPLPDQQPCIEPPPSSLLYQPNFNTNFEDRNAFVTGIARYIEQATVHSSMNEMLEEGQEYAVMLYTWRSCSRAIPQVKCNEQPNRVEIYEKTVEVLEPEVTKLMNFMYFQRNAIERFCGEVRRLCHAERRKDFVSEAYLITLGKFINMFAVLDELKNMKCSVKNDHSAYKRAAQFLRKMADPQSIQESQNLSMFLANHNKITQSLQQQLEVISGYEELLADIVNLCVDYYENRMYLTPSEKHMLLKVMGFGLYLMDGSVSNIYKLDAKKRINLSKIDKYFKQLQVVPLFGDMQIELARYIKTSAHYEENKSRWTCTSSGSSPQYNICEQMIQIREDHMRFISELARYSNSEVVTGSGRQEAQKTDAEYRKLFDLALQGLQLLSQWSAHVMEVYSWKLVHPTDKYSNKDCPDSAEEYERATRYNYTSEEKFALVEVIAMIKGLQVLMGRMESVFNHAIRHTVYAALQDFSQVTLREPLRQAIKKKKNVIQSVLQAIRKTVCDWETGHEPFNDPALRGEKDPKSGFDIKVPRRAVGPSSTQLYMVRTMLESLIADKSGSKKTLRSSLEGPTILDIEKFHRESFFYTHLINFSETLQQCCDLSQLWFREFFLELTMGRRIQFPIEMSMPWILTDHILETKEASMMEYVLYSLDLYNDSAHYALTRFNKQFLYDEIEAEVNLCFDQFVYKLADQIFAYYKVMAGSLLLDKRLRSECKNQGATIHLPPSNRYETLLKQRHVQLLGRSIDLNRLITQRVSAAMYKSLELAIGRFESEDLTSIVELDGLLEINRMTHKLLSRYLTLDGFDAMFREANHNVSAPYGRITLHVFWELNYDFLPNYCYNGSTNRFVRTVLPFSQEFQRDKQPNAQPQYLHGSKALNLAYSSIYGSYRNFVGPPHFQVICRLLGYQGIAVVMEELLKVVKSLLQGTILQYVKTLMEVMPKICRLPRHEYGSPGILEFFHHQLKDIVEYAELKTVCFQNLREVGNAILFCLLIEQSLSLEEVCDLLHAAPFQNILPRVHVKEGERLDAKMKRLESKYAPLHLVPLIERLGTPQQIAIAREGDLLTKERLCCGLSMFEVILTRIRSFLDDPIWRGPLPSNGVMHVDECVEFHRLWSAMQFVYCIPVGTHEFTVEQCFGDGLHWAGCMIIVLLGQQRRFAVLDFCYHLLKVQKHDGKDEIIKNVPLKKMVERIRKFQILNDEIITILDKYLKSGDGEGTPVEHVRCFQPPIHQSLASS
UniProt Q9Y6W5: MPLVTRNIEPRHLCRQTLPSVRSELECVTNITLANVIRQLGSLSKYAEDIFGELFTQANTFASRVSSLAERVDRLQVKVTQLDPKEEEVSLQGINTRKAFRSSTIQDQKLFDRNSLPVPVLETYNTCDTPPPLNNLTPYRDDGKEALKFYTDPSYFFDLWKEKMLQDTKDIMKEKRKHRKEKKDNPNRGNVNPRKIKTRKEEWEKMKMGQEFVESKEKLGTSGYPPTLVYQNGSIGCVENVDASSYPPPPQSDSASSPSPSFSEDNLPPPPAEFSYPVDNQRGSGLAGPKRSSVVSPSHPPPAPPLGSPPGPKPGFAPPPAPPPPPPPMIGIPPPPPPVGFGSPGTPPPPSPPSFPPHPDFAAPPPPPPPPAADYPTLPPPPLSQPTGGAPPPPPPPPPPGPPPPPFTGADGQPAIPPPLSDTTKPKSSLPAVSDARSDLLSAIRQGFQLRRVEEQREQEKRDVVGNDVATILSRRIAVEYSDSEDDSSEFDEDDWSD

This assay has as its target CYFIP1/SRA1, a subunit of the WAVE2 protein complex, endogenous protein of MCF-7 cells (human (endogenous in MCF-7)) (UniProt Q7L576). Kind of assay: co-IP; MCF-7 cells, endogenous proteins; anti-GAS7 and anti-CYFIP1 antibodies used for IP and western blotting; normal goat IgG as negative control. Background: Immunoblotting shows a protein as a band on a membrane.

Results are given in words; binding and its absence hold for the method and conditions named. Binding seen in cells or lysates may run through a third protein. Some results given as binding are weak or reduced against the parent protein; the word gives no strength.

On to “WASP-family verprolin-homologous protein 2 (WAVE2), endogenous protein of MCF-7 cells (from UniProt Q9Y6W5 1-498)”, for which the binding entry is “binds”.
